Measurements from patent publication US10322188B2, “Cell-penetrating drug carrier and the application thereof” (National Central University, priority 2014, dated 2019).
Not every detail of the peptide structures is certain; ends, links or a residue may be inferred. Some entries share one result that the patent states for a list of compounds. Ends that are not written are not given here.

Experiments:
[1] = system: trypsin; experiment: Protease stability test: trypsin digestion followed by RPC-UV280; type: in vitro ADME; conditions: after about 1 hour; FIG. 6C
From the text: It can be expected that drug carrier in vivo circulation will face to many bio-enzymes, wherein those bio-enzymes will cut the drug carrier. Before designing proper protection to those bio-enzymes, we hope to finger out the cutting result of the recognizable sequence-CPP (cell-penetrating peptide) by bio-enzymes. In this example, trypsin is employed as the bio-enzyme. Trypsin is a protease with selectivity, especially for cutting the carboxyl side of arginine (R) or lysine (K) of protein or peptide. In this example, when CPP is IL-R57F89, there are four arginine fragments in CPP being able to be cut by trypsin. Those four arginine fragments are R5, R7, R12, and R13.
FIG. 6A and FIG. 6B are respectively the RPC-UV280 spectra of IL-R57F89 and GPLSI-P17 digested by 0.1 g/mL trypsin. The gradient elution is 20-70% ACN, 5-30 min. In the spectra, there are sampling analysis results of 5, 10, 20, 30, 60, 120, and 240 min from top to bottom. […] According to this example, it can be noticed that it has to design a proper structure for keeping the recognizable sequence-CPP of drug carrier from cut by bio-enzyme(s) before the drug carrier achieving the target cell.
Subsequently, it is important to find out proper PEG length so that the PEG can provide protection to the recognizable sequence-CPP and the PEG will not impact the anchoring of the target cell to the recognizable sequence. […]

[2] = molecular target: T1, MMP-2 (Homo sapiens, UniProt P08253); experiment: Digestion of recognizable sequence by MMP-2, followed by RPC / RP-HPLC; type: biochemical; conditions: after 24 hours; FIG. 4C, 5A, 5B
T1 sequence (P08253 110-660): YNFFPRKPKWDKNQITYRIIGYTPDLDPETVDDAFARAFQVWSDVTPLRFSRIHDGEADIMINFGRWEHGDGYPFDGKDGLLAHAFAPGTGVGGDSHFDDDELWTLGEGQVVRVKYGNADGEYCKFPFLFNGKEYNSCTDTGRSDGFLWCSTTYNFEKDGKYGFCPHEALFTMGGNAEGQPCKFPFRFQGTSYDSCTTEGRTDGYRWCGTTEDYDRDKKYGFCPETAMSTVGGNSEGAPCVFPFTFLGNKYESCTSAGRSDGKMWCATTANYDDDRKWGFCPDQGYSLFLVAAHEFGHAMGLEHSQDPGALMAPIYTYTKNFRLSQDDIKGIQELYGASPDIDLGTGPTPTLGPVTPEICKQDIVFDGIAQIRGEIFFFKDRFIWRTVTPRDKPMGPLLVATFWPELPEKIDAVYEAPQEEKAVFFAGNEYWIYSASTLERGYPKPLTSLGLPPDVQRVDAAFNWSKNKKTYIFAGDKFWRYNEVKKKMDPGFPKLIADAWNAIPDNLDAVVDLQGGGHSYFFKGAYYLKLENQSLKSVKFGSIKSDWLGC
Description: In the experiment of employing MMP-2 to cut/digest recognizable sequence, after individually adding tryptophan (abbreviated symbol as “W”) at the C-terminus and the N-terminus of the recognizable sequence, the digestion of the recognizable sequence by MMP-2 can be followed by the character absorption wave length at 280 nm.
FIG. 4A to FIG. 4C respectively presents the reversed 1phase chromatography (RPC) analysis of 100 µM P1, P2, and P4 in Table 1 digested by 1 g/mL MMP-2. The gradient elution is 0-100% ACN, 50 min. […] Another recognizable sequence P4 with the same length as P3 and different amino acid fragments is designed.
The ILPW fragment from P4 digestion and the first four amino acid fragment of IL-R57F89 are the same. There are two MMP-2 cut-able sequences, GPLSI-P17 and GPLGI-P17, designed with the sequence individually as GPLS-ILPWRWRFFPWRR (SEQ ID NO: 11) and GPLG-ILPWRWRFFPWRR (SEQ ID NO: 10). The RP-HPLC analysis of GPLSI-P17 and GPLGI-P17 digested by MMP-2 are shown as FIG. 5A and FIG. 5B. It should be noticed that we ensure the peak of IL-R57F89 before the digestion of GPLSI-P17 and GPLGI-P17. […]
Including providing protection to recognizable sequence-CPP, proper PEG length will not impact the anchoring of the target cell to the recognizable sequence. […] The reaction results are analyzed by RPC and shown as FIG. 8A and FIG. 8B.

| Sequence | digestion ratio by trypsin [1] | digestion by MMP-2 [2] |
| --- | --- | --- |
| GPLSILPWRWRFFPWRR [GPLSI-P17] | 90-95% | totally digested |
| ILPWRWRFFPWRR [IL-R57F89] | 90-95% | – |
